Source: article PMC7570871 (Molecules, 2020)

How the values were obtained:
[1] = general procedure: Fmoc solid-phase peptide synthesis; details: whole synthesis, analytical RP-HPLC
peptide made by a vendor = details: whole synthesis, analytical RP-HPLC

Row | Substance | final HPLC purity [1] | final HPLC purity (peptide made by a vendor)
1 | DOTA-D-Phe-c[Cys-1-NaI-D-Trp-Lys-Thr-Cys]Thr(ol) | 96% | –
2 | DOTA-(4-amino-3-iodo)-D-Phe-c[Cys-(3-iodo)-Tyr-D-Trp-Lys-Val-Cys]-Thr-NH2 | – | 100%
